Data source: PubChem BioAssay AID1259264 (Sanger Institute, 2017)
Shown is one part, drawn at random, of 794 deposited reagents. In the full data, 15 (1.9%) are marked active. 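Calls rest on knock-down alone at z-score below -3; synergy scores with the three drugs do not decide them.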 Unmarked entries are inactive. Viability is capped at 1. Not all columns of the deposit are shown. No sequences are given here. Not given: the amount of reagent, the time to read-out.

- Assay: 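Kinases whose loss cuts CL40 colorectal cancer cell survival, alone or with drugs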 (primary screen)
- System: CL40 human colorectal cancer cells
- Knock-down reagent: siRNA pool against human genes
- Conditions: DMSO, or an anchor drug: BYL719 at 1 µM, cetuximab at 5 µg/ml, or trametinib at 10 nM
- Read-out: 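Viability as a fraction of non-targeting pool control (replicates averaged), control-based robust z-score, plus averaged synergy for each drug: BYL719 1 µM, cetuximab 5 µg/ml, trametinib 10 nM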
- Scale: robust z-score, siRNA alone and viability, siRNA alone: higher = more viable cells
- Units: viability, siRNA alone in fraction of control
- Active means: 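a gene counts as essential when knock-down without drug gives a robust z-score below -3, meaning fewer cells; synergy scores play no part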
- Calls: active = essential (lowers viability alone); inactive = not essential

ACVR2A (activin A receptor type 2A) [SID152150723]: robust z-score, siRNA alone = 0.539; viability, siRNA alone = 1
MST1R (macrophage stimulating 1 receptor) [SID152152898]: robust z-score, siRNA alone = 0.539; viability, siRNA alone = 1
MET (MET proto-oncogene, receptor tyrosine kinase) [SID56478534]: robust z-score, siRNA alone = -0.366; viability, siRNA alone = 0.935
ITPKC (inositol-trisphosphate 3-kinase C) [SID56479112]: robust z-score, siRNA alone = 0.539; viability, siRNA alone = 1
FXR1 (FMR1 autosomal homolog 1) [SID152147249]: robust z-score, siRNA alone = 0.301; viability, siRNA alone = 0.983
PDGFRB (platelet derived growth factor receptor beta) [SID152152554]: robust z-score, siRNA alone = 0.492; viability, siRNA alone = 0.997
PAPSS1 (3'-phosphoadenosine 5'-phosphosulfate synthase 1) [SID56479195]: robust z-score, siRNA alone = 0.539; viability, siRNA alone = 1
RIOK1 (RIO kinase 1) [SID56479042]: robust z-score, siRNA alone = -1.58; viability, siRNA alone = 0.848
STK33 (serine/threonine kinase 33) [SID56479053]: robust z-score, siRNA alone = 0.539; viability, siRNA alone = 1
PIM1 (Pim-1 proto-oncogene, serine/threonine kinase) [SID56478736]: robust z-score, siRNA alone = 0.0953; viability, siRNA alone = 0.968
ULK2 (unc-51 like autophagy activating kinase 2) [SID56479062]: robust z-score, siRNA alone = 0.539; viability, siRNA alone = 1
DCK (deoxycytidine kinase) [SID56479088]: robust z-score, siRNA alone = -5.34 (active); viability, siRNA alone = 0.579
UCK2 (uridine-cytidine kinase 2) [SID56478981]: robust z-score, siRNA alone = 0.539; viability, siRNA alone = 1
RNASEL (ribonuclease L) [SID56478962]: robust z-score, siRNA alone = 0.539; viability, siRNA alone = 1

Not a retest: 4 of the entries above.
PIM1 (Pim-1 proto-oncogene, serine/threonine kinase) [SID56478736]: robust z-score, siRNA alone = 0.0953; viability, siRNA alone = 0.968
ULK2 (unc-51 like autophagy activating kinase 2) [SID56479062]: robust z-score, siRNA alone = 0.539; viability, siRNA alone = 1
DCK (deoxycytidine kinase) [SID56479088]: robust z-score, siRNA alone = -5.34 (active); viability, siRNA alone = 0.579
UCK2 (uridine-cytidine kinase 2) [SID56478981]: robust z-score, siRNA alone = 0.539; viability, siRNA alone = 1

The results go on.
STK25 (serine/threonine kinase 25) [SID135620899]: robust z-score, siRNA alone = 0.134; viability, siRNA alone = 0.971
FES (FES proto-oncogene, tyrosine kinase) [SID56478510]: robust z-score, siRNA alone = 0.0333; viability, siRNA alone = 0.964
DYRK3 (dual specificity tyrosine phosphorylation regulated kinase 3) [SID152153037]: robust z-score, siRNA alone = 0.539; viability, siRNA alone = 1
CLK1 (CDC like kinase 1) [SID152154455]: robust z-score, siRNA alone = -0.305; viability, siRNA alone = 0.939
MYLK2 (myosin light chain kinase 2) [SID56479029]: robust z-score, siRNA alone = 0.309; viability, siRNA alone = 0.983
SPHK1 (sphingosine kinase 1) [SID152154122]: robust z-score, siRNA alone = 0.539; viability, siRNA alone = 1
IP6K2 (inositol hexakisphosphate kinase 2) [SID56479106]: robust z-score, siRNA alone = 0.539; viability, siRNA alone = 1
MYLK4 (myosin light chain kinase family member 4) [SID152150692]: robust z-score, siRNA alone = -1.24; viability, siRNA alone = 0.872
CDKN2D (cyclin dependent kinase inhibitor 2D) [SID135620643]: robust z-score, siRNA alone = 0.16; viability, siRNA alone = 0.973
STK16 (serine/threonine kinase 16) [SID152154415]: robust z-score, siRNA alone = 0.539; viability, siRNA alone = 1
MAPK13 (mitogen-activated protein kinase 13) [SID56478704]: robust z-score, siRNA alone = 0.539; viability, siRNA alone = 1
ADCK2 (aarF domain containing kinase 2) [SID56478993]: robust z-score, siRNA alone = -1.62; viability, siRNA alone = 0.845
NME1 (NME/NM23 nucleoside diphosphate kinase 1) [SID56479166]: robust z-score, siRNA alone = 0.539; viability, siRNA alone = 1
RBKS (ribokinase) [SID56479147]: robust z-score, siRNA alone = 0.539; viability, siRNA alone = 1
ARAF (A-Raf proto-oncogene, serine/threonine kinase) [SID152151166]: robust z-score, siRNA alone = 0.539; viability, siRNA alone = 1
TRIB1 (tribbles pseudokinase 1) [SID56478720]: robust z-score, siRNA alone = 0.539; viability, siRNA alone = 1
SIK1 (salt inducible kinase 1) [SID152146842]: robust z-score, siRNA alone = -0.0558; viability, siRNA alone = 0.957
STK38L (serine/threonine kinase 38 like) [SID152156064]: robust z-score, siRNA alone = 0.408; viability, siRNA alone = 0.991
PASK (PAS domain containing serine/threonine kinase) [SID56478950]: robust z-score, siRNA alone = -0.684; viability, siRNA alone = 0.912
PRAG1 (PEAK1 related, kinase-activating pseudokinase 1) [SID152147410]: robust z-score, siRNA alone = -0.0693; viability, siRNA alone = 0.956
PNCK (pregnancy up-regulated nonubiquitous CaM kinase) [SID152151558]: robust z-score, siRNA alone = -1.09; viability, siRNA alone = 0.884
PFKFB3 (6-phosphofructo-2-kinase/fructose-2,6-biphosphatase 3) [SID135621247]: robust z-score, siRNA alone = 0.539; viability, siRNA alone = 1
